Literature values as cited in patent publication US20230330134A1, “METHOD OF PROPHYLAXIS OF CORONAVIRUS AND/OR RESPIRATORY SYNCYTIAL VIRUS INFECTION” (Starpharma Pty Ltd., priority 2020, published 2023).
pEC50: −log10 of the molar value. At least one compound was matched to its structure with a doubt left. Some entries share one result that the patent states for a list of compounds.

Tested on: BetaCoV/Wuhan/WIV04/2019
Settings: cited from earlier work

SMILES: CCC(CC)COC(=O)[C@H](C)N[P@](=O)(OC[C@H]1O[C@@](C#N)(c2ccc3c(N)ncnn23)[C@H](O)[C@@H]1O)Oc1ccccc1 [Remdesivir, reference compound]
- pEC50 (against BetaCoV/Wuhan/WIV04/2019): 6.11
- CC50: > 100 µM
